Results deposited as PubChem BioAssay AID1259425 (University of Nebraska Medical Center, 2018)
Here is one part, drawn at random, of about 14,000 reagents. Not all columns of the deposit are shown. Not given: the time to read-out.

- Test: 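Find knockdowns that reproduce the gene expression pattern seen when KSR1 is lost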 (primary screen)
- Cell system: HCT116 human colon cancer cells
- Knock-down reagent: siRNA pool against human genes, 50 nM siRNA
- Read-out: 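After 50 nM siRNA pool, branched-DNA assay measures six marker transcripts per well, minus blank, normalised to the geometric mean of two housekeeping transcripts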
- Scale: BNIP3L mRNA: higher = more BNIP3L transcript after knockdown; NDRG1 mRNA: higher = more NDRG1 transcript after knockdown; BNIP3 mRNA: higher = more BNIP3 transcript after knockdown; ALDOC mRNA: higher = more ALDOC transcript after knockdown

no.	Gene	BNIP3L mRNA, set 1	NDRG1 mRNA, set 1	BNIP3 mRNA, set 1	ALDOC mRNA, set 1
1	TEP1	0.121	0.192	0.366	0.0323
2	ABCA10	0.126	0.107	0.307	0.0306
3	RPS20	0.0631	0.187	0.281	0.0153
4	TMEM38B	0.176	0.189	0.253	0.0314
5	FRG1	0.0851	0.249	0.315	0.0182
6	SUSD1	0.0695	0.202	0.3	0.0211
7	NKD1	0.0925	0.137	0.271	0.0185
8	GCM1	0.0829	0.274	0.247	0.0115
9	RAC1	0.199	0.127	0.443	0.00103
10	SERPINA7	0.126	0.165	0.324	0.00759
11	KDM5B	0.0626	0.205	0.29	0.00964
12	TWIST2	0.0869	0.063	0.381	0.0402
13	ZRSR2P1	0.0998	0.218	0.296	0.041
14	BTRC	0.0738	0.0977	0.196	0.0204
15	ARHGEF40	0.177	0.763	0.429	0.0447
16	CLMP	0.219	0.237	0.304	0.0326
17	SHANK1	0.108	0.179	0.305	0.00584
18	PALB2	0.195	0.388	0.391	0.0806
19	RPL10	0.503	0.604	1.73	0.106
20	OR1D2	0.113	0.0976	0.374	0.0522
21	POLR3D	0.105	0.0325	0.358	0.0136
22	FGF4	0.109	0.318	0.306	0.033
23	TBP	0.0744	0.19	0.381	-0.00373
24	CCDC174	0.116	0.173	0.367	0.0228
25	MPDU1	0.186	1.34	0.313	0.051
26	SLC6A1	0.139	0.277	0.111	0.0417
27	IFT56	0.188	0.251	0.598	0.0876
28	DOCK5	0.0996	0.357	0.341	0.0388
29	PRPF40B	0.0418	0.0355	0.0445	0.0295
30	GOSR1	0.129	0.088	0.386	0.0266
31	HOXD13	0.142	0.163	0.283	0.0203
32	MTMR11	0.16	0.289	0.38	0.0368
33	NR1H3	0.0638	0.0966	0.275	0.0162
34	SMARCA4	0.101	0.125	0.292	0.0266
35	TLR3	0.0699	0.0888	0.252	0.0104
36	LRPPRC	0.146	0.284	0.277	0.0119
37	CACNA1E	0.164	0.27	0.292	0.07
38	ITPR1	0.119	0.323	0.218	0.0251
39	ZNF706	0.109	0.0907	0.344	0.0237
40	NOTCH2	0.111	0.267	0.239	0.0126
41	WNT10A	0.0597	0.264	0.226	0.0218
42	FCHO1	0.0932	0.0743	0.452	0.0171
43	LIPG	0.062	0.0979	0.257	0.0199
44	PABPN1	0.103	0.164	0.181	0.0188
45	PKD1L1-AS1	0.0734	0.187	0.349	0.0187
46	P2RY14	0.275	0.183	0.435	0.0425
47	POP1	0.166	0.682	0.3	0.0452
48	PSMB10	0.122	0.123	0.326	0.0123
49	ANKRD12	0.0982	0.133	0.445	0.0225
50	CCN3	0.0898	0.123	0.236	0.026
